Laboratory results from the supplement of paper PMC5949888.
Most values lie at the floor of the assay. Slopes are relative: functional sequences can read slightly below zero.

tested on: Saccharomyces cerevisiae PS128 hsf1 delta, HSF1(1-493) fusion; assay: growth estimate (transactivation domain function in HSF1 fusion, heat-shock survival) (a.u. (slope of normalised read count over time)); higher = stronger growth at 37°C, i.e. more transactivation activity; conditions: library: random library
Procedure: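 Random 60-nt DNA library encoding peptides of up to 20 aa, fused to the C-terminus of yeast HSF1 residues 1-493 (C-terminal TAD deleted) and expressed from the native HSF1 promoter on a CEN plasmid in hsf1-deleted S. cerevisiae PS128. Cells were selected at 37°C on -trp 5-FOA plates for 0, 2, 4, 6 and 8 days and amplicons were sequenced. Growth estimate is the slope of a robust linear fit of total-sum-normalised read counts (normalised to the first time point) over time, using at least 2 replicates. Sequences are classed functional (TAD activity) above a threshold of -0.13, set from stop-codon control sequences.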

| Substance | growth estimate |
| --- | --- |
| SGSSSVKSSLTSNSITNGPL | < -0.25 |
| KSSAVSLTLRPLGPNGKTQH | < -0.25 |
| NLVAAGKAALCGSSS | < -0.25 |
| MVAGALRFRSRRGRS | < -0.25 |
| SVQ | < -0.25 |
| HSAGFQ | < -0.25 |
| VVSSMRVKWRLVNWLKCTSA | < -0.25 |
| ADRGLPD | < -0.25 |
| TLMGGCTEILHLH | < -0.25 |
| VPPLCPLVTFWQVHNSIRML | < -0.25 |
| SHQTSRPVACSQVRAWHQRR | < -0.25 |
| SVSM | < -0.25 |
| IPEKLGGACQETQYSVIRIY | < -0.25 |
| ELRGKADQPVSNAPACEENQ | < -0.25 |
| PATFVTSCRDRRGRQPSYNC | < -0.25 |
| LSAVARSNWTQTCITG | < -0.25 |
| DAYPLWEQEEVSRMPNSLCA | < -0.25 |
| CRQYSPG | < -0.25 |
| GVSSLRDVTGRW | -0.25 |
| TAPTSPTGLAVHSYAADQSP | < -0.25 |
| TLVTAAVGIRKPKMPG | < -0.25 |
| PMADDSGLEWVVF | < -0.25 |
| IWEGSLSSW | < -0.25 |
| VWITDGGAPRLRGICGRTRC | < -0.25 |

| Substance | growth estimate |
| --- | --- |
| TMEFRVMSRADLQSEERGRP | < -0.25 |
| SGVGNTLDVAGTNDSSIDAR | < -0.25 |
| KMADNQE | < -0.25 |
| AGVWYKLTPTRNDPVSLVGC | < -0.25 |
| NWLKYSALGYG | < -0.25 |
| YPLRP | < -0.25 |
| NRRKRWSGLHWLLLRALRKF | < -0.25 |
| RGFSCVVCCGWIARLSVILP | < -0.25 |
| PGHSVKTKAEAVTGSEVRQS | < -0.25 |
| STNVLDRRKDARAIFTDWGP | < -0.25 |
| YSPSPKDSVRTSRLCGNGIF | < -0.25 |
| ITTGR | < -0.25 |
| CVGWKTARPGARVDSSGGVS | < -0.25 |
| TLDMACPENQQHLCF | < -0.25 |
| EASVSIMAPQNGVWILVPDG | < -0.25 |
| GRSVLFRSCGE | < -0.25 |
| GVVVLLRTGSTTGYSVGEHS | < -0.25 |
| AGSI | < -0.25 |
| ATPDASLTRGYSMLSIVVTQ | < -0.25 |
| SFECIYVDGNDGSVGRAPSW | -0.195 |
| QVHCM | < -0.25 |
| VYLF | < -0.25 |
| LNKVFRVLVQPRLQSHVVFT | < -0.25 |
| GPKPRMLREPYRSGRLTLPS | 0.0112 |

| Substance | growth estimate |
| --- | --- |
| TTALHGS | < -0.25 |
| EHPVSGLTNGDVSRQSEMRC | < -0.25 |
| VDVKDGYDILVPSCTLGFVC | < -0.25 |
| GGT | < -0.25 |
| GESVLSCEYLSALGEFLVTS | < -0.25 |
| GSRGDHQHCTLNGRLFNLCI | < -0.25 |
| GVSGQ | < -0.25 |
| REGQVGRSESVIAQLR | < -0.25 |
| EITGS | < -0.25 |
| NDESGGDLRLKDGVPLHIQR | < -0.25 |
| IMENKHGFD | < -0.25 |
| DPWAGSRHQVYVTSGSSD | < -0.25 |
| PIPRYLWRRIAVFQRVS | -0.231 |
| GKGKAPPRGVAPCIGFILSA | < -0.25 |
| QVFP | < -0.25 |
| FCGLDVLPG | < -0.25 |
| RSVRCWLHAGMFVTRGYGS | < -0.25 |
| GLPGLLRAR | < -0.25 |
| VWGLTVQKITSQNIIPAYRP | < -0.25 |
| LDIFISGDDSLLVCN | < -0.25 |
| RTQ | < -0.25 |
| SSMLNVGGCSLHRYGRDFGD | < -0.25 |
| EKDPLQGLLRLANWPGPGSS | < -0.25 |
| HIFRSRKWCPSNSQEA | < -0.25 |

A stretch from the list above, as a working copy:

| Substance | growth estimate |
| --- | --- |
| SHQTSRPVACSQVRAWHQRR | < -0.25 |
| SVSM | < -0.25 |
| IPEKLGGACQETQYSVIRIY | < -0.25 |
| ELRGKADQPVSNAPACEENQ | < -0.25 |
| PATFVTSCRDRRGRQPSYNC | < -0.25 |
| LSAVARSNWTQTCITG | < -0.25 |
| DAYPLWEQEEVSRMPNSLCA | < -0.25 |
| CRQYSPG | < -0.25 |
| GVSSLRDVTGRW | -0.25 |
| TAPTSPTGLAVHSYAADQSP | < -0.25 |
| TLVTAAVGIRKPKMPG | < -0.25 |
| PMADDSGLEWVVF | < -0.25 |
| IWEGSLSSW | < -0.25 |
| VWITDGGAPRLRGICGRTRC | < -0.25 |
| TMEFRVMSRADLQSEERGRP | < -0.25 |
| SGVGNTLDVAGTNDSSIDAR | < -0.25 |
| KMADNQE | < -0.25 |
| AGVWYKLTPTRNDPVSLVGC | < -0.25 |
| NWLKYSALGYG | < -0.25 |
| YPLRP | < -0.25 |
| NRRKRWSGLHWLLLRALRKF | < -0.25 |
| RGFSCVVCCGWIARLSVILP | < -0.25 |
| PGHSVKTKAEAVTGSEVRQS | < -0.25 |
| STNVLDRRKDARAIFTDWGP | < -0.25 |
| YSPSPKDSVRTSRLCGNGIF | < -0.25 |
| ITTGR | < -0.25 |
| CVGWKTARPGARVDSSGGVS | < -0.25 |
| TLDMACPENQQHLCF | < -0.25 |
| EASVSIMAPQNGVWILVPDG | < -0.25 |
| GRSVLFRSCGE | < -0.25 |
| GVVVLLRTGSTTGYSVGEHS | < -0.25 |
| AGSI | < -0.25 |
| ATPDASLTRGYSMLSIVVTQ | < -0.25 |
| SFECIYVDGNDGSVGRAPSW | -0.195 |
| QVHCM | < -0.25 |
| VYLF | < -0.25 |
| LNKVFRVLVQPRLQSHVVFT | < -0.25 |
| GPKPRMLREPYRSGRLTLPS | 0.0112 |
| TTALHGS | < -0.25 |

More records.

| Substance | growth estimate |
| --- | --- |
| RLG | < -0.25 |
| YPTPESVRTTCLGSVVLHCA | < -0.25 |
| RFHSRGRR | < -0.25 |
| GHIISSVECSI | < -0.25 |
| GAFTSA | < -0.25 |
| SIWLIRRSFARSRPGILTS | -0.229 |
| KWLQSVARAEKEVGLNARKM | < -0.25 |
| VGAGDVVSRSTLAHLANVCR | < -0.25 |
| GWSVLMD | < -0.25 |
| TWKMRLRCVRVARPHTVSHA | < -0.25 |
| TKVKNPRAGSSSSIVVRETR | < -0.25 |
| EIAKYKRISRTPRAAFGRGS | < -0.25 |
| KRSSDARDIGRSCREAGITY | < -0.25 |
| PPPCHRSWLVPGTKSRRTKL | < -0.25 |
| RHKYPGLSTFPHGLVSIVIW | < -0.25 |
| MCEEPARVERSI | < -0.25 |
| GPCFGQRYIGCGTF | < -0.25 |
| GFRAWQLGNQGHRGRRQSQK | < -0.25 |
| GQMPNALKSP | < -0.25 |
| ASEVGLCA | < -0.25 |
| RTYTVGGFHHDPPWIQMVGV | < -0.25 |
| WTR | < -0.25 |
| IFVWAAWRSKYRTGTFSPPG | < -0.25 |
| GDRPLPLCGGVIGIVENARV | < -0.25 |

| Substance | growth estimate |
| --- | --- |
| SQVPPKARTSEGRENSAWCA | < -0.25 |
| RAQEDFQNLRVMVCARVPWV | < -0.25 |
| DFYEGGWEGLIDGPTRI | < -0.25 |
| LKQSSVSVLRRVKVIFERGV | < -0.25 |
| SDS | -0.242 |
| GLRYTSGRPISPPHHLPQGG | < -0.25 |
| DGRKNWFIGSSCSRAGGPHG | < -0.25 |
| RPAILWT | < -0.25 |
| PYILDDDGVIPPNTTGSCPV | < -0.25 |
| HIQGLQTRSIEVRGGPRTPL | < -0.25 |
| ICLFTGLAAGCPASLCGGPP | < -0.25 |
| CRKGAEVPRWCPARATLLLR | < -0.25 |
| WAGNLLSGKPDSWNSVGG | < -0.25 |
| FRLVHISGCNDLHGLM | < -0.25 |
| WLSRREHALSGKVLIGWVPL | < -0.25 |
| LTLVPAHAWGFPGRCVSNTR | < -0.25 |
| ARHRLLRPERGPVTVT | < -0.25 |
| SGGGIPALRLGDGVWV | < -0.25 |
| ATGEQWSPSTLLQG | < -0.25 |
| LSRLLKTPQERARGWISGRW | < -0.25 |
| NESQLSGSLRAYVGALAKSG | < -0.25 |
| RPGVWPGGWEEVLRRP | 0.788 |
| DKVRQPGT | < -0.25 |
| VRRIGSMWERIVHC | < -0.25 |

| Substance | growth estimate |
| --- | --- |
| APRAMGSDRTAIGRVVAEIA | < -0.253 |
| IKPMLAWFGSNTIGVLPSWF | < -0.25 |
| VGAFPRQHCVSCLGSVQSCV | < -0.25 |
| MLTRPYRTLCPPNYPFEEYR | -0.245 |
| RSRGPEQSGFAVRIGPMRSG | < -0.25 |
| LFPLKVSITVNRMERIVCPG | < -0.25 |
| CAPSK | < -0.25 |
| LWVIVWAAYTA | < -0.25 |
| CTVYRAVPCRAIGWRWLCSV | < -0.25 |
| MYGGRDMVVGLRTGL | < -0.25 |
| IQDRLSGADCLLSRSGQYMF | < -0.25 |
| PSGVLSTSSLLARDR | -0.217 |
| PGWTDLIIWCLKVNSHRGDV | < -0.25 |
| KFIADHHV | < -0.25 |
| PSVIRALPNL | < -0.25 |
| VLHRRIERSRYAL | < -0.25 |
| LLGHQTNKGF | < -0.25 |
| CTADSPYLRMGAQQLKCVES | < -0.25 |
| LRTIALLLRKWLCWGVLVVC | < -0.25 |
| PNRWSVVTVLNRPHGQAVRP | < -0.25 |
| FLRLVSALA | < -0.25 |
| RKRNADG | < -0.25 |
| RSFFYYRTERVRI | < -0.25 |
| VFRTTFKRVKQLVNAQSAPS | < -0.25 |

| Substance | growth estimate |
| --- | --- |
| GTRMFTFPATTISCPWDRCT | < -0.25 |
| SVGVATGAGVLVVEAWSVKG | < -0.25 |
| SFLFRLLGHTVRPASQHGLS | < -0.25 |
| VLMG | < -0.25 |
| DGSFGEERAYNLRWGLRLVP | < -0.25 |
| HGKEWREGETPAEGPR | < -0.25 |
| AIGSADGPRGLSV | < -0.25 |
| FLPWVR | < -0.25 |
| RSDLLSCRCIMWGL | < -0.25 |
| GDHG | < -0.25 |
| GTGAPNGDIL | < -0.25 |
| VPCCG | < -0.25 |
| ILGLAVKVRKICGLPGRKL | < -0.25 |
| YKAVHLEWEID | < -0.25 |
| LQISDCRTTADHLKIGR | < -0.25 |
| ASSPRVI | < -0.25 |
| EELPHSPVKLQGRRLI | < -0.25 |
| DTSLSQIYSAGRD | < -0.25 |
| VSEGGD | < -0.25 |
| YLTLAFEVPFMETWGTILPS | < -0.25 |
| ISVV | < -0.25 |
| GRPKPVKLGRGPREFPYWSR | < -0.25 |
| TASSAVRVVLILA | < -0.25 |
| RSPDRVLAKSVRRSVGW | < -0.25 |

| Substance | growth estimate |
| --- | --- |
| LQPGSVDGWEERFMNSAVAI | < -0.25 |
| SSGHGW | < -0.25 |
| AIRYSLLQSNSRRLYLRGG | < -0.25 |
| QARKDLEVGAVRSNE | < -0.25 |
| DSMSCLHAATLDRSRGGVLH | < -0.25 |
| NAVACDHTHLVHVVHWALFG | < -0.25 |
| GPKSLSSLVFGWPSVPT | < -0.25 |
| RAFSADIQSGAPGGNIFSSD | < -0.25 |
| VGHPTNYG | < -0.25 |
| IASFWLVQRYRSPHVLVISS | < -0.25 |
| TVPELT | < -0.25 |
| LIYVVWGPTRPWRL | < -0.25 |
| WNPSVNARSMSCVESKPE | < -0.25 |
| LGTENRTMFLLGLVAPFTAS | < -0.25 |
| LRVY | < -0.25 |
| PNTFQ | < -0.25 |
| KSELGTLLGPTNVARIPATF | < -0.25 |
| PCLPALPSFVMALQRHQALC | < -0.25 |
| RRPRRVGGPYYTRRSPIRRE | < -0.25 |
| RVAYVLRLWSSITRCHAALP | < -0.25 |
